Patent US7786083B2 (Takeda Pharmaceutical Company Limited, priority 2006, dated 2010)

What was measured:
[1] = general procedure: Fmoc solid-phase peptide synthesis; Rink Amide MBHA resin; DCC/HOBt; DIPCDI/HOOBt; DIPCDI/HOAt; PyAOP/HOAt/DIEA; PyBrop/HOAt/DIEA; settings: whole synthesis, acetate
[2] = general procedure: Fmoc solid-phase peptide synthesis; Fmoc-Rink Amide MBHA resin; DCC/HOBt; DIPCDI/HOOBt; DIPCDI/HOAt; PyAOP/HOAt/DIEA; PyBrop/HOAt/DIEA; settings: whole synthesis, scale 0.55 mmol, acetate
[3] = general procedure: Fmoc solid-phase peptide synthesis; Rink Amide MBHA; DCC/HOBt; DIPCDI/HOOBt; DIPCDI/HOAt; PyAOP/HOAt/DIEA; PyBrop/HOAt/DIEA; settings: whole synthesis, scale 0.25 mmol, acetate; run 1

## des(1)-Ac-[D-Tyr2,Hyp3,Thr5,Cha6,Ala(cPr)8,Arg(Me)9,Trp 10]MS10
[1]; scale 0.952 mmol
  crude mass: 1.118 g
[1]; scale 0.952 mmol, run 1
  isolated mass: 389.3 mg
[1]; scale 0.952 mmol, run 2
  isolated mass: 368.6 mg

## des(1)-Ac-[D-Tyr2,Hyp3,Thr5,Gly7Ψ((E)CH═CH)Leu8,Arg(Me)9,Trp10]MS10
[1]; scale 0.1 mmol
  isolated mass: 19.6 mg

## des(1)-Ac-[D-Tyr2,Hyp3,Thr5,Gly7Ψ(CH2NH)Leu8,Arg(Me)9,Trp10]MS10 (YPNTFGLRW; D-residues; N-methyl; non-natural residues)
[1]; scale 0.05 mmol
  isolated mass: 0.6 mg

## des(1)-Ac-[D-Tyr2,Hyp3,Alb4,Thr5,Cha6,Gly7Ψ((E)CH═CH)Leu8,Arg(Me)9,Trp 10]MS10
[1]; scale 1.5 mmol, run 1
  isolated mass: 352.2 mg
[1]; scale 1.5 mmol, run 2
  isolated mass: 321.8 mg

## des(1)-Ac-[D-Tyr2,Hyp3,Thr5,Phe6Ψ(CH2O)Gly7,Arg(Me)9,Trp 10]MS10
[1]; scale 25 μmol, run 1
  isolated mass: 2.5 mg and 2.0 mg

## des(1)-Ac-[D-Tyr2,Hyp3,Thr5,Phe6T(CH2CH2)AzaGly7,Arg(Me)9,Trp10]MS10
[1]; scale 0.03 mmol
  isolated mass: 3.6 mg

## des(1)-Ac-[D-Tyr2,Hyp3,Thr5,Phe6T(CH2S)Gly7,Arg(Me)9,Trp 10]MS10
[1]; scale 0.045 mmol
  isolated mass: 5.0 mg

## des(1)-Ac-[D-Tyr2,Hyp3,Alb4,Thr5,Cha6,Gly7Ψ((E)CH═CH)Leu8,Trp 10]MS10
[2]
  isolated mass: 436.9 mg

## des(1)-Ac-[D-Tyr2,Hyp3,Thr5,Arg(Me)9,Trp 10]MS10
[3]
  isolated mass: 114.6 mg and 93.4 mg

## des(1)-Ac-[D-Tyr2,Hyp3,Thr5,Gly7Ψ(CH2S)Leu8,Arg(Me)9,Trp10]MS10
[1]; scale 0.02 mmol
  isolated mass: 2.7 mg

Values joined by “and” are separate entries in the source; they are usually repeats but may differ in a detail not shown here. Equal entries are not always repeated.
